{"source": "PubChem BioAssay AID1259308, NCATS, 2017", "assay": "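Knock-downs that increase output of a recombinant reporter protein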 (primary screen)", "cells": "human HEK293 embryonic kidney cells stably expressing firefly luciferase (HEK-CMV-Luc2-Hygro)", "knock-down reagent": "single siRNA against human genes, 0.8 pmol siRNA per well", "duration": "72 h", "detection": "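Luciferase light (ONE-Glo) measured on one replicate plate set and viability (CellTiter-Glo) on the other, scaled to a negative control siRNA, with robust z-scores and luciferase per cell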", "direction": "total luciferase, z-score and total luciferase, % of control: higher = more reporter protein produced", "rule for the call": "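An siRNA counts as active if its total luciferase robust z-score exceeds 3; genes with two or more such siRNAs out of three were retested with fresh siRNAs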", "meaning of the calls": "active = raised luciferase; inactive = no rise", "note": "Here is one part, drawn at random, of about 59,000 reagents. About 1,510 of all reagents (2.6%) were called active. 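Calls use total luciferase alone and ignore viability, so some active siRNAs may act by altering cell number.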 A number with no mark means an inactive call. The numbers tell different reagents against one gene apart. Further read-outs or replicates are left out here."}
{"Target gene":"CYTH1 (cytohesin 1)","reagent":1,"total luciferase, z-score":-0.186,"total luciferase, % of control":78.2}
{"Target gene":"CYTH1 (cytohesin 1)","reagent":2,"total luciferase, z-score":1.11,"total luciferase, % of control":104}
{"Target gene":"CYTH1 (cytohesin 1)","reagent":3,"total luciferase, z-score":0.821,"total luciferase, % of control":98.2}
{"Target gene":"MAP3K15 (mitogen-activated protein kinase kinase kinase 15)","reagent":1,"total luciferase, z-score":-1.4,"total luciferase, % of control":54.1}
{"Target gene":"MAP3K15 (mitogen-activated protein kinase kinase kinase 15)","reagent":2,"total luciferase, z-score":-0.338,"total luciferase, % of control":75.2}
{"Target gene":"MAP3K15 (mitogen-activated protein kinase kinase kinase 15)","reagent":3,"total luciferase, z-score":-0.129,"total luciferase, % of control":79.3}
{"Target gene":"CCDC136 (coiled-coil domain containing 136)","reagent":1,"total luciferase, z-score":1.86,"total luciferase, % of control":119}
{"Target gene":"CCDC136 (coiled-coil domain containing 136)","reagent":2,"total luciferase, z-score":-0.69,"total luciferase, % of control":68.2}
{"Target gene":"CCDC136 (coiled-coil domain containing 136)","reagent":3,"total luciferase, z-score":-0.567,"total luciferase, % of control":70.6}

Reprinted from above for reference:
{"Target gene":"MAP3K15 (mitogen-activated protein kinase kinase kinase 15)","reagent":2,"total luciferase, z-score":-0.338,"total luciferase, % of control":75.2}
{"Target gene":"MAP3K15 (mitogen-activated protein kinase kinase kinase 15)","reagent":3,"total luciferase, z-score":-0.129,"total luciferase, % of control":79.3}
{"Target gene":"CCDC136 (coiled-coil domain containing 136)","reagent":1,"total luciferase, z-score":1.86,"total luciferase, % of control":119}

The results go on.
{"Target gene":"NIPA1 (NIPA magnesium transporter 1)","reagent":1,"total luciferase, z-score":0.679,"total luciferase, % of control":95.4}
{"Target gene":"NIPA1 (NIPA magnesium transporter 1)","reagent":2,"total luciferase, z-score":1.83,"total luciferase, % of control":118}
{"Target gene":"NIPA1 (NIPA magnesium transporter 1)","reagent":3,"total luciferase, z-score":-0.779,"total luciferase, % of control":66.4}
{"Target gene":"CLDN5 (claudin 5)","reagent":1,"total luciferase, z-score":0.624,"total luciferase, % of control":94.3}
{"Target gene":"CLDN5 (claudin 5)","reagent":2,"total luciferase, z-score":-0.108,"total luciferase, % of control":79.7}
{"Target gene":"CLDN5 (claudin 5)","reagent":3,"total luciferase, z-score":"3.64 (active)","total luciferase, % of control":154}
{"Target gene":"LRCH4","reagent":1,"total luciferase, z-score":-1.9,"total luciferase, % of control":44.2}
{"Target gene":"LRCH4","reagent":2,"total luciferase, z-score":1.75,"total luciferase, % of control":117}
{"Target gene":"LRCH4","reagent":3,"total luciferase, z-score":0.199,"total luciferase, % of control":85.8}
{"Target gene":"PLEKHM1 (pleckstrin homology and RUN domain containing M1)","reagent":1,"total luciferase, z-score":0.228,"total luciferase, % of control":86.4}
{"Target gene":"PLEKHM1 (pleckstrin homology and RUN domain containing M1)","reagent":2,"total luciferase, z-score":-0.479,"total luciferase, % of control":72.4}
{"Target gene":"PLEKHM1 (pleckstrin homology and RUN domain containing M1)","reagent":3,"total luciferase, z-score":-0.903,"total luciferase, % of control":63.9}
